Data as given in PubChem BioAssay AID686943 (Drosophila RNAi Screening Center, 2013).
The screen tested about 23,000 reagents; this is a random part of those that have a named target and a result. 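Extra replicates exist only for a retested subset of genes; insulin dose and duration not given; both raised and lowered dpERK matter.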 A plus sign joins genes that one reagent is predicted to hit. Further read-outs or replicates are left out here. Not given: the amount of reagent, the time to read-out.

Screen: 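Search across the genome for regulators of signalling from receptor tyrosine kinase to ERK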 (primary screen)
Cell system: Drosophila S2R+ haemocyte-like cells expressing YFP-tagged ERK (Rolled)
Reagent: long dsRNA against Drosophila genes
Conditions: insulin stimulation versus unstimulated cells; dose and duration not given
Detection: 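Antibody staining for doubly phosphorylated ERK divided by ERK-YFP signal, as plate z-scores, in insulin-treated and untreated cells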
Scale: replicate 1, z-score of dpERK with insulin: higher = more active ERK per ERK-YFP after insulin

| gene | amplicon | replicate 1, z-score of dpERK with insulin |
| --- | --- | --- |
| CG17721 | DRSC15253 | 0.41 |
| bcn92 | DRSC18741 | -0.15 |
| sowah | DRSC09186 | -0.46 |
| sowah | DRSC09758 | -0.75 |
| Pop4 | DRSC10955 | -0.19 |
| CG2225 | DRSC03722 | 0.19 |
| CG2225 | DRSC03723 | 0.08 |
| Hmgcr | DRSC16704 | -0.51 |
| CG10089 | DRSC09694 | -0.1 |
| CG10089 | DRSC09695 | -1.46 |
| CG1265 | DRSC08288 | 0.78 |
| Ir68b | DRSC10251 | 0.15 |
| Prosalpha5 | DRSC07514 | -1.95 |
| TotM | DRSC02355 | -0.09 |
| Ugt49B1 | DRSC04461 | -0.15 |
| CG31675 | DRSC01825 | 0.03 |
| CG7963 | DRSC16355 | 0.07 |
| Fem-1 | DRSC07322 | 0.01 |
| CG8260 | DRSC20098 | 0.16 |
| rib | DRSC07021 | -0.18 |
| CG4751 | DRSC02776 | 0.14 |
| CG4080 | DRSC10398 | -0.47 |
| eIF4E5 | DRSC10975 | -0.07 |
| Prx6c + CG12896 + Prx6b | DRSC06148 | 0.94 |
| Vha44 | DRSC07572 | 1.36 |
| Vha44 | DRSC07573 | 0.46 |
| Su(Tpl) | DRSC10954 | 1.19 |
| TwdlX | DRSC19151 | -0.66 |
| Polr2B | DRSC16831 | 6.49 |
| CG5674 | DRSC02874 | -2.26 |
| Cyt-b5 | DRSC07392 | -0.08 |
| CG32679 | DRSC17644 | 1.13 |
| CG4546 | DRSC15593 | 0.08 |
| Smr | DRSC19495 | -5.69 |
| Smr | DRSC20288 | -4.24 |
| tra2 | DRSC07708 | 0.5 |
| Trf5 | DRSC00412 | -0.85 |
| CG13051 | DRSC09932 | 0.31 |
| Mtl | DRSC16751 | -1.29 |
| CG18128 | DRSC04304 | -0.16 |
| CG5103 | DRSC10481 | -0.14 |
| CG14275 | DRSC02379 | 0.1 |
| sick | DRSC02090 | 1.19 |
| sick | DRSC02300 | -0.26 |
| sick | DRSC02301 | 0.07 |
| sick | DRSC02302 | 0.08 |
| sick | DRSC02303 | -1.24 |
| sick | DRSC02306 | -1.71 |
| btz | DRSC14566 | -1.04 |
| velo | DRSC08841 | 1.13 |
| velo | DRSC09698 | 2.22 |
| CG5687 | DRSC08568 | 1.83 |
| VGAT | DRSC07160 | 0.35 |
| CG15580 | DRSC12266 | -0.11 |
| CG7329 | DRSC03046 | -0.03 |
| CG5611 | DRSC15843 | -0.23 |
| Syt12 | DRSC19359 | -0.45 |

Records listed so far whose gene name begins with T or t:
| gene | amplicon | replicate 1, z-score of dpERK with insulin |
| --- | --- | --- |
| TotM | DRSC02355 | -0.09 |
| TwdlX | DRSC19151 | -0.66 |
| tra2 | DRSC07708 | 0.5 |
| Trf5 | DRSC00412 | -0.85 |
